Assay results published in publication doi:10.1101/2024.06.19.599365.
No constants are given. Whether binding was seen depends on the method and setting. Binding seen in cells or lysates may run through a third protein. These calls come from enrichment with a bait or labelling near it, and not all partners need be listed.

Protein sequences, listed by entry. Tags and fused reporters are not part of them.
UniProt P38398: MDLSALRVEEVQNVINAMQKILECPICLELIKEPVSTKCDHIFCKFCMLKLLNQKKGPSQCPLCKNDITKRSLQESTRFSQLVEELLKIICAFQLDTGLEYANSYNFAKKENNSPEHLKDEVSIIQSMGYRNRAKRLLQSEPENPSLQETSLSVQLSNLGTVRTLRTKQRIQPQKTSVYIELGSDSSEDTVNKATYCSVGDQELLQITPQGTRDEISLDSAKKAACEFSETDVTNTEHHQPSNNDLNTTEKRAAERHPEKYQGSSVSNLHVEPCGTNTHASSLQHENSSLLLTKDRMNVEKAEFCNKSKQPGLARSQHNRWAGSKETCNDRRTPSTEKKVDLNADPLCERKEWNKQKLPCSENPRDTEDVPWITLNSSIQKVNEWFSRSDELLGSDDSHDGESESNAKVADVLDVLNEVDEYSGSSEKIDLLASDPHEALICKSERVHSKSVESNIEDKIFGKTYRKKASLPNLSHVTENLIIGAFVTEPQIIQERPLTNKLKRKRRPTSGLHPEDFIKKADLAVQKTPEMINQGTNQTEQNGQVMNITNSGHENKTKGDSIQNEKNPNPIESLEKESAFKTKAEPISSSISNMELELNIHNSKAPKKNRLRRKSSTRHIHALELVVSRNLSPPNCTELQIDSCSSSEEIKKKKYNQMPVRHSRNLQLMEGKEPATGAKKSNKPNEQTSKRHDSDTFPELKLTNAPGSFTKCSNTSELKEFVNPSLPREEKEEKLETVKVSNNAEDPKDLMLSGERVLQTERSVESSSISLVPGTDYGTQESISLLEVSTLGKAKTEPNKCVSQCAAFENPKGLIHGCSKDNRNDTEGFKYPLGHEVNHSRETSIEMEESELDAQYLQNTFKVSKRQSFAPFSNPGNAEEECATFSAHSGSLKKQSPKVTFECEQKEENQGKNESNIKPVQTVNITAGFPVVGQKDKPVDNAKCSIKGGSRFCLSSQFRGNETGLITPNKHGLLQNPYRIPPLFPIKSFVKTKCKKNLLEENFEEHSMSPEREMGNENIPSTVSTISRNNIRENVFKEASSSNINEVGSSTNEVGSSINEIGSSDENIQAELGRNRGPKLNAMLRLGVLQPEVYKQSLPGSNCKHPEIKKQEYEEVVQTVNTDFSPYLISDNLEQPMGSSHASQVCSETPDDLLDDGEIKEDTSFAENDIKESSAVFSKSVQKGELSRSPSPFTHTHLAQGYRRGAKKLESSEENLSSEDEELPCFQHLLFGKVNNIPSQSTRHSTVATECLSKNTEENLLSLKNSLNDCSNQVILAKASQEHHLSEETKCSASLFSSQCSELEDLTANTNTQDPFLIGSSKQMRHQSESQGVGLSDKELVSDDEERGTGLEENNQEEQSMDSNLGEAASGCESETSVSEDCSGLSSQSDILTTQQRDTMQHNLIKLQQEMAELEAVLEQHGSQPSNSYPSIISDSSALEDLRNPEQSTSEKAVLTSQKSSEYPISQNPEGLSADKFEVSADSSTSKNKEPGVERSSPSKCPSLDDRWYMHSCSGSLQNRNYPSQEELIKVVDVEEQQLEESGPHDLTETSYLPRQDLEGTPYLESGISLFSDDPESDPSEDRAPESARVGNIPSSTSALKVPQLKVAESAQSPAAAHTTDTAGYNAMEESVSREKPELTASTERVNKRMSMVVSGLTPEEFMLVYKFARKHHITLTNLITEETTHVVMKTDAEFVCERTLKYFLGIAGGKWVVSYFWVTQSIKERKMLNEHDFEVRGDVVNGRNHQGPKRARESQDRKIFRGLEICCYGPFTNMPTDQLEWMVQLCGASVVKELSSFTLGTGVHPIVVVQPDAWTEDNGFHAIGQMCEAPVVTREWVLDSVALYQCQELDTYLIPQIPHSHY
UniProt Q9UBL3: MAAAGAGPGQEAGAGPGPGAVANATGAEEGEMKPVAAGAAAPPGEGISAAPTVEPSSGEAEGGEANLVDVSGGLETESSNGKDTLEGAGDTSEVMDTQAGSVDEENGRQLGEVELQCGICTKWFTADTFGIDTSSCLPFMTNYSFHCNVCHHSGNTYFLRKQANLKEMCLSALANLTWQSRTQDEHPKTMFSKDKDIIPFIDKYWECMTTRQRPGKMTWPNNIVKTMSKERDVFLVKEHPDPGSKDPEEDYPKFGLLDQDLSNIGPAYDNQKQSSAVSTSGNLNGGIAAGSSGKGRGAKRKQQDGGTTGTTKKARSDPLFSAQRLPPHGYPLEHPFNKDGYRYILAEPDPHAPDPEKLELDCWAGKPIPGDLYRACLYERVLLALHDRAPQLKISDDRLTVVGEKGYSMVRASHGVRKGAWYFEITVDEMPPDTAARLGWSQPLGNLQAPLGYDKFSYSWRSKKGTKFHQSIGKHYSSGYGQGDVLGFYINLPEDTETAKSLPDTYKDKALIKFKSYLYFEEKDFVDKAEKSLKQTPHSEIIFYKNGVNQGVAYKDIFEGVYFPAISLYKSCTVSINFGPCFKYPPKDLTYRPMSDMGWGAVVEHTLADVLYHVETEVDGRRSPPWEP
UniProt Q16531: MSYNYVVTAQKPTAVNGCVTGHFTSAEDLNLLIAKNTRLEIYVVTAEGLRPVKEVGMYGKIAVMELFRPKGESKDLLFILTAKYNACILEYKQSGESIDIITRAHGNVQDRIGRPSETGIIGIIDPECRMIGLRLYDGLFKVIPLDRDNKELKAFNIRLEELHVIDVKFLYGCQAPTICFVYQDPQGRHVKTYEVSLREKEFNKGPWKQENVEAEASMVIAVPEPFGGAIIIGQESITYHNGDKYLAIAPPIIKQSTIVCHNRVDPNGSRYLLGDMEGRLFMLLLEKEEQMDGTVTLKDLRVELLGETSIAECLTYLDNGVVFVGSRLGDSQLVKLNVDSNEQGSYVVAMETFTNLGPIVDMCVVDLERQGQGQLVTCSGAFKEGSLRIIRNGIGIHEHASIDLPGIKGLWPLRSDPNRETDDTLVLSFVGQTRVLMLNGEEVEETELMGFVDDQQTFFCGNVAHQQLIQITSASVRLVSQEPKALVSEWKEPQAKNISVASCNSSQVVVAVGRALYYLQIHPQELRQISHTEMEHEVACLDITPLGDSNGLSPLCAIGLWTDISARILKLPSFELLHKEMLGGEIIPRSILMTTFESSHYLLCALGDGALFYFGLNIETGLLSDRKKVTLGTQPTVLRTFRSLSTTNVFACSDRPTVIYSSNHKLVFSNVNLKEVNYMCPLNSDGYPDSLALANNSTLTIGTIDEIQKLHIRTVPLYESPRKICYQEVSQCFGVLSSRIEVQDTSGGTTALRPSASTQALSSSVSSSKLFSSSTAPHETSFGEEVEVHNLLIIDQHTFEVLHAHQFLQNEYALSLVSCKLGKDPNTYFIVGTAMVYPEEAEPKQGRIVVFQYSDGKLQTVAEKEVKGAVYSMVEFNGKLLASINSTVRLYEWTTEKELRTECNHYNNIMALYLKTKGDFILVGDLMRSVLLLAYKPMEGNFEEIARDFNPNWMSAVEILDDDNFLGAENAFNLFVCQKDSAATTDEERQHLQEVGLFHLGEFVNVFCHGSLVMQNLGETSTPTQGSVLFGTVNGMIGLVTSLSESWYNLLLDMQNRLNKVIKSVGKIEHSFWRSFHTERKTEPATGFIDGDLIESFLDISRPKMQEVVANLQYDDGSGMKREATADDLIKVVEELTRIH
UniProt Q93008: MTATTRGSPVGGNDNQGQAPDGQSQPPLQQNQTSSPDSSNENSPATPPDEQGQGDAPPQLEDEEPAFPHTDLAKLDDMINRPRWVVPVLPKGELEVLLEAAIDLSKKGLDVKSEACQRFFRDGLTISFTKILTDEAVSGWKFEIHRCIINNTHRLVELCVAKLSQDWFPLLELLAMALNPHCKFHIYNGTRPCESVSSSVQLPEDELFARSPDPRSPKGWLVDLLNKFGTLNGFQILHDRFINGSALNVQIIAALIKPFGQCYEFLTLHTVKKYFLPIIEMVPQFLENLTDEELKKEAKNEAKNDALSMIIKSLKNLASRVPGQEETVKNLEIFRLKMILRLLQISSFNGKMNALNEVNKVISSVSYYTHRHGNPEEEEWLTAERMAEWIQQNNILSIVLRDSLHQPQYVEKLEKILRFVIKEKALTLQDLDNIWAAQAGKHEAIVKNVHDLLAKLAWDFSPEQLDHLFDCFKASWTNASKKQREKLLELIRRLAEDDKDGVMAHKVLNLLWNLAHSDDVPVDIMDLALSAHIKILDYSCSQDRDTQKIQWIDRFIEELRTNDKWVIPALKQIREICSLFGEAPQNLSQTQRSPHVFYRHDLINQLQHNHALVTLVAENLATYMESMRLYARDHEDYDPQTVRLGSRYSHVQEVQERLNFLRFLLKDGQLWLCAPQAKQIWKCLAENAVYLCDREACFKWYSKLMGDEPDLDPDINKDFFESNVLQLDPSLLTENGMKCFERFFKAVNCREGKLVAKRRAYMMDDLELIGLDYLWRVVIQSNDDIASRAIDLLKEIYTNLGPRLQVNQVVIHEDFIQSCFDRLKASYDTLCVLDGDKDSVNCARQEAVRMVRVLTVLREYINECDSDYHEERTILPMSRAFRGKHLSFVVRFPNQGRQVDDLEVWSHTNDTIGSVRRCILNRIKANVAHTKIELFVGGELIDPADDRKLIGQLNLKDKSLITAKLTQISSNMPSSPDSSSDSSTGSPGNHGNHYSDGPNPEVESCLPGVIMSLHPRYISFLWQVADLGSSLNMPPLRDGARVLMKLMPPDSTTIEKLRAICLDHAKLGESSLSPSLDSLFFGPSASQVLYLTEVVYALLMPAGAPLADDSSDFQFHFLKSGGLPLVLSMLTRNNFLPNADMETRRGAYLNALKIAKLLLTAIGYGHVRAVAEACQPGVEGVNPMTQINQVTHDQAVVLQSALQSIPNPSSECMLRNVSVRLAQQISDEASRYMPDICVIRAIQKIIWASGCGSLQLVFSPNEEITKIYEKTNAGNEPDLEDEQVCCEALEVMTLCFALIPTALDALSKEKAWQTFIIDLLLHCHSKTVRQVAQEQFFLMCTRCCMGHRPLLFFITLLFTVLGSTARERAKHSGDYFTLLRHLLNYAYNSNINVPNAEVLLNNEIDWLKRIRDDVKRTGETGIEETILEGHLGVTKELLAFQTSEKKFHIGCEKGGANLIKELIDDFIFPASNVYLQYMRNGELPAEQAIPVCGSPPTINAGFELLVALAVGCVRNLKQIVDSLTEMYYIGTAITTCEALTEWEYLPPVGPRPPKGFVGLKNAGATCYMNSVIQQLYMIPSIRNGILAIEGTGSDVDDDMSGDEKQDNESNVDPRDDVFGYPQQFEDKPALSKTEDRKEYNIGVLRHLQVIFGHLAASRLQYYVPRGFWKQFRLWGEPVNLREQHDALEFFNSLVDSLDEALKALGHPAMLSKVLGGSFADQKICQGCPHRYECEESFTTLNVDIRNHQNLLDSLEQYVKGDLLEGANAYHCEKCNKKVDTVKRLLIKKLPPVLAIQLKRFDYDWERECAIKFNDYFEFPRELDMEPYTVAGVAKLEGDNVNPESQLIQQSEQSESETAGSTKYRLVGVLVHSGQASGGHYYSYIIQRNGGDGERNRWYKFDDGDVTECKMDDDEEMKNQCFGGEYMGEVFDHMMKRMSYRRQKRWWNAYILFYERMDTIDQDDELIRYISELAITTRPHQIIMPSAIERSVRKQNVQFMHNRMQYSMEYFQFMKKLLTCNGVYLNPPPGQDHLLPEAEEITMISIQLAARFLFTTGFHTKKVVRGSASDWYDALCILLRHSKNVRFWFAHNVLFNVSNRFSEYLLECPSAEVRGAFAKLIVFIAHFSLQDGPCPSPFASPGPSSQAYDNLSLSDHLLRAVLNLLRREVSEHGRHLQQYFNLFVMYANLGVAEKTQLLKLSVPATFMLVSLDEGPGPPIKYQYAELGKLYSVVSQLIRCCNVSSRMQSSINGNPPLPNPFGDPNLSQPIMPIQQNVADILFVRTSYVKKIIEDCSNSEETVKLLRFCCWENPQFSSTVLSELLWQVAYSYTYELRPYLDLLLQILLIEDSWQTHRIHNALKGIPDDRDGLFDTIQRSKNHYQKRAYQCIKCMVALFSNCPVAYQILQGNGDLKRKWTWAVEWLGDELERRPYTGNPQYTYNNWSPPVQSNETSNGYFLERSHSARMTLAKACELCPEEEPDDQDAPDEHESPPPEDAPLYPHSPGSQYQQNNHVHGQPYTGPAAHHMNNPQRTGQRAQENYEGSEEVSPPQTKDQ

B1: HNRNPM (protein, UniProt P52272 1-730)
chain: MAAGVEAAAEVAATEIKMEEESGAPGVPSGNGAPGPKGEGERPAQNEKRKEKNIKRGGNRFEPYANPTKRYRAFITNIPFDVKWQSLKDLVKEKVGEVTYVELLMDAEGKSRGCAVVEFKMEESMKKAAEVLNKHSLSGRPLKVKEDPDGEHARRAMQKVMATTGGMGMGPGGPGMITIPPSILNNPNIPNEIIHALQAGRLGSTVFVANLDYKVGWKKLKEVFSMAGVVVRADILEDKDGKSRGIGTVTFEQSIEAVQAISMFNGQLLFDRPMHVKMDERALPKGDFFPPERPQQLPHGLGGIGMGLGPGGQPIDANHLNKGIGMGNIGPAGMGMEGIGFGINKMGGMEGPFGGGMENMGRFGSGMNMGRINEILSNALKRGEIIAKQGGGGGGGSVPGIERMGPGIDRLGGAGMERMGAGLGHGMDRVGSEIERMGLVMDRMGSVERMGSGIERMGPLGLDHMASSIERMGQTMERIGSGVERMGAGMGFGLERMAAPIDRVGQTIERMGSGVERMGPAIERMGLSMERMVPAGMGAGLERMGPVMDRMATGLERMGANNLERMGLERMGANSLERMGLERMGANSLERMGPAMGPALGAGIERMGLAMGGGGGASFDRAIEMERGNFGGSFAGSFGGAGGHAPGVARKACQIFVRNLPFDFTWKMLKDKFNECGHVLYADIKMENGKSKGCGVVKFESPEVAERACRMMNGMKLSGREIDVRIDRNA

Molecular target: BRCA1 (human (endogenous in PC3 and LNCaP)) (UniProt P38398)
Assay: affinity purification with mass spectrometry

| Molecule | binding |
| --- | --- |
| ASH2L (from UniProt Q9UBL3 1-628) | binds |
| CASC3 (from UniProt O15234 1-703) | binds |
| DDB1 (from UniProt Q16531 1-1140) | binds |
| KNTC1 (from UniProt P50748 1-2209) | binds |
| LMNA (from UniProt P02545 1-646) | binds |
| PABPC1 (from UniProt P11940 1-636) | binds |
| RBBP5 (from UniProt Q15291 1-538) | binds |
| Raptor (from UniProt Q8N122 1-1335) (other; other documents disagree on this pair) | binds |
| UBA1 (from UniProt P22314 1-1058) | binds |
| USP9X (from UniProt Q93008 1-2554) | binds |
| B1 | binds |
